Measured values taken from patent publication US20080105961A1, “Ligands of the Molecule Fit (Agt-121) and their Pharmaceutical Use” (priority 2004, published 2008).
These are yes or no findings as the source states them, for the method shown. Some results given as binding are weak or reduced against the parent protein; the word gives no strength. Blank lines part the entries; values can stand above or below the binder they belong to.

Chains of the proteins cited; added tags and fusions are not shown.
UniProt Q99963: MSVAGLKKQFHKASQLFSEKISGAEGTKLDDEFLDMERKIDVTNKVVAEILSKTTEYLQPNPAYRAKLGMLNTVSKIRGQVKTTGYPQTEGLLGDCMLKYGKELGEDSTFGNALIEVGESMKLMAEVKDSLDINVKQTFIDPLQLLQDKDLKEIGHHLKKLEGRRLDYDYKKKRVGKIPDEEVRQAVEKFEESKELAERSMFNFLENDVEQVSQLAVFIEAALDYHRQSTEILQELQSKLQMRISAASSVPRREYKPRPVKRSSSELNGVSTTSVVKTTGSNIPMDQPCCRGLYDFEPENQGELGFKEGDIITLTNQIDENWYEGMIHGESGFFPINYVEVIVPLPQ
UniProt O95782: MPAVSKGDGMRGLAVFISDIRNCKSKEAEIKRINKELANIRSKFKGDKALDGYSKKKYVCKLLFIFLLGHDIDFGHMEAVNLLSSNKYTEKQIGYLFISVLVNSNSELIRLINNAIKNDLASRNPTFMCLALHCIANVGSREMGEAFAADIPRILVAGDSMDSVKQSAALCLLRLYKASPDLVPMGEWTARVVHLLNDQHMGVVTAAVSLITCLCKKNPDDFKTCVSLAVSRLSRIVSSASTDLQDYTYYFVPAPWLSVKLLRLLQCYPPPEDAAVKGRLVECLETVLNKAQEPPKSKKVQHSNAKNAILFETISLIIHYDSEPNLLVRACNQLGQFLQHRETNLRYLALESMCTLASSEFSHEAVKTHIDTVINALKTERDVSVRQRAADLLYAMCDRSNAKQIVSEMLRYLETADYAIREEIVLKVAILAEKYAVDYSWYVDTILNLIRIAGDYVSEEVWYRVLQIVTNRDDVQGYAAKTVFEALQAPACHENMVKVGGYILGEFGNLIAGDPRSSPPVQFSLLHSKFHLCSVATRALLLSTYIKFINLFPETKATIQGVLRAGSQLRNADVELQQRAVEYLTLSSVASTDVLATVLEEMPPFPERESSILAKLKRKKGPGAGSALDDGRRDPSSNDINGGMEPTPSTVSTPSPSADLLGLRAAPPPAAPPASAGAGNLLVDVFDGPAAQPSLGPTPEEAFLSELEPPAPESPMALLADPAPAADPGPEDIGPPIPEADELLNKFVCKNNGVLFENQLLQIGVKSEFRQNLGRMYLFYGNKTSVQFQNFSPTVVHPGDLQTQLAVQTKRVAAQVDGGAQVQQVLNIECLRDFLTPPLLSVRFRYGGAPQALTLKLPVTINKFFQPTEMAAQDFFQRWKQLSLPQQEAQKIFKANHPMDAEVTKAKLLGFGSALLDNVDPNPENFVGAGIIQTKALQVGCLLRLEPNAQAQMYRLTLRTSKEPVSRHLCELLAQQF
UniProt O94973: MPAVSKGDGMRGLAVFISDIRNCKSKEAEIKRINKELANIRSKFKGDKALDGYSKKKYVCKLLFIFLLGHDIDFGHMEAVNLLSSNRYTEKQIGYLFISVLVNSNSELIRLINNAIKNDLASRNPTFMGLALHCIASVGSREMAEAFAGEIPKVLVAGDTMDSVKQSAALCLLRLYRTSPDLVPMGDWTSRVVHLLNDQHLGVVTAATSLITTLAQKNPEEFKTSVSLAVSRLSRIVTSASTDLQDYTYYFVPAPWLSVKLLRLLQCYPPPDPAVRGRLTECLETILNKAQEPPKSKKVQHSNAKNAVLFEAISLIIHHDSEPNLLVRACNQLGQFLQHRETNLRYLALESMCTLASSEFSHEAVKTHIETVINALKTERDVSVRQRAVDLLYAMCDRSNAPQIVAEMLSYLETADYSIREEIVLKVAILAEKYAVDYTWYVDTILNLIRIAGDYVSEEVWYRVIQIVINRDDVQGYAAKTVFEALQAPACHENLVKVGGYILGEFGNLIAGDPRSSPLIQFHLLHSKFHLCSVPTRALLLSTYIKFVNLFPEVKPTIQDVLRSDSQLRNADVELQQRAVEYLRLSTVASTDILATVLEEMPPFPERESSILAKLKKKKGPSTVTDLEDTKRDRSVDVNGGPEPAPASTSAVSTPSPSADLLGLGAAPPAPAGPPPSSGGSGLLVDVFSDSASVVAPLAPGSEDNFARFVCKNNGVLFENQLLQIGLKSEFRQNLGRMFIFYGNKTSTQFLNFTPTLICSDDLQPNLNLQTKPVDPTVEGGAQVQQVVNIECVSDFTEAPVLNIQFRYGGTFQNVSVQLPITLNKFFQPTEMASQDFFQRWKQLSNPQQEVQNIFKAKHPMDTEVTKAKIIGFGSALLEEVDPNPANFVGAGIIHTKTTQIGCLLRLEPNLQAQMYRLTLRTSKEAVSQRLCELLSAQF
UniProt P49407: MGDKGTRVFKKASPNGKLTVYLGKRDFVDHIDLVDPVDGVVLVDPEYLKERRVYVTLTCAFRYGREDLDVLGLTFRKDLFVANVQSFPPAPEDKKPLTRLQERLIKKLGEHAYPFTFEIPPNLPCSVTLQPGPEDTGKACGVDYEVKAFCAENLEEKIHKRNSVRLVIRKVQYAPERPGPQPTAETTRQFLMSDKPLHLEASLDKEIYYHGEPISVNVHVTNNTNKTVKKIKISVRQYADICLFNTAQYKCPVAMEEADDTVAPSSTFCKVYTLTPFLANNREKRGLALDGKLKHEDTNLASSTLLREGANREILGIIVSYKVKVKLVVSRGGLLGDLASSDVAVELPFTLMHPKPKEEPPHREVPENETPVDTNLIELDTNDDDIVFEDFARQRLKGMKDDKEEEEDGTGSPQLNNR
UniProt P32121: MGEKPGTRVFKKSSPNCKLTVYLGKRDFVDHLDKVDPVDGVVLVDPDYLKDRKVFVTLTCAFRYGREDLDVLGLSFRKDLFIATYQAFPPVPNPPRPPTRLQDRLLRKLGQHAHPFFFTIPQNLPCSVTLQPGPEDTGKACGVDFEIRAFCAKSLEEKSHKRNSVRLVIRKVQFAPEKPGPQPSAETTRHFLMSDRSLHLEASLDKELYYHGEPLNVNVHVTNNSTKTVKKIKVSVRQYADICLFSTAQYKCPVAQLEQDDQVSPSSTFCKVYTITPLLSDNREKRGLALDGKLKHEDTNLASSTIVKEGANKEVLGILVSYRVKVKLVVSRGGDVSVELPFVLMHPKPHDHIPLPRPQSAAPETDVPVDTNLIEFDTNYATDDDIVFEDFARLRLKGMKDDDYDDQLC

Legend:
[1] = biological target: SH3GL3; endophilin 3 (human) (UniProt Q99963); test: yeast two-hybrid
[2] = biological target: SH3GL3; endophilin 3 (human) (UniProt Q99963); test: yeast two-hybrid screen of a human brain cDNA library (2 clones)
[3] = biological target: Adapter-related protein complex 2 α-1 subunit (human) (UniProt O95782); test: yeast two-hybrid
[4] = biological target: Adapter-related protein complex 2, α-2 subunit (human) (UniProt O94973); test: yeast two-hybrid
Beta-arrestin 1 (human) [5] = biological target: Beta-arrestin 1 (human) (UniProt P49407); test: yeast two-hybrid
Beta-arrestin 2 (human) [6] = biological target: Beta-arrestin 2 (human) (UniProt P32121); test: yeast two-hybrid
[7] = biological target: Adapter-related protein complex 2, α-2 subunit (human) (UniProt O94973); test: yeast two-hybrid screen of a human brain cDNA library (1 clone)
Beta-arrestin 1 (human) [8] = biological target: Beta-arrestin 1 (human) (UniProt P49407); test: as above
Beta-arrestin 2 (human) [9] = biological target: Beta-arrestin 2 (human) (UniProt P32121); test: yeast two-hybrid screen of a human brain cDNA library (2 clones)
[10] = biological target: Adapter-related protein complex 2 α-1 subunit (human) (UniProt O95782); test: yeast two-hybrid screen of a human brain cDNA library (8 clones)
[11] = biological target: SH3GL3; endophilin 3 (human) (UniProt Q99963); test: yeast two-hybrid screen of a human brain cDNA library (7 clones; rows listed from highest to lowest interacting strength)

binding [1]: binds
binding [2]: binds
B1: FIT-PR (FIT proline-rich region), yeast two-hybrid bait (protein, not shown: small tags and cut ends)
chain: RPFPTGTPPPLPPKTVPATPPRTGSPLTVATGNDQAATEAKIEKPPSISDLDSIFGPVLSPKSVAVNTEETWVHFSDASPEHVTPELTPREKVVTPPAASDIPADSPTPGPPGPPGSAGPPGPPGPRNVPSPLNLEEVQKKVAEQTFIKDDYLETLSSPKECGLGQRATPPPPPPPTYRTVVSSPGPGSGSGTGTASGASSPARPATPLVPCSCSTPPPPPPRPPSRPKLPPGKPGVGDVSRPFSPPIHSSSPPPIAPL

binding [3]: binds
binding [4]: binds
binding (Beta-arrestin 1 (human) [5]): binds
binding (Beta-arrestin 2 (human) [6]): binds
binding [1]: binds
binding [7]: binds
binding (Beta-arrestin 1 (human) [8]): binds
binding (Beta-arrestin 2 (human) [9]): binds
binding [10]: binds
binding [11]: binds
B2: FIT-NP (FIT N-terminal plus proline-rich region), yeast two-hybrid bait (protein, not shown: small tags and cut ends)
chain: MMEGLKKRTRKAFGIRKKEKDTDSTGSPDRDGMQPSPHELPYHSKAECAREGGKKASKKSNGAPNGFYAEIDWERYNSPELDEEGYSIRPEEPGSTKGKHFYSSSESEEEEESHKKFNIKIKPLQSKDILKNAATVDELKASIGNIALSPSPVRKSPRRSPGAIKRNLSSEEVARPRRSTPTPELTSKKPLDDTLALAPLFGPPLESAFDGHKTEVLLDQPEIWGSGQPVNPSMESPKLARPFPTGTPPPLPPKTVPATPPRTGSPLTVATGNDQAATEAKIEKPPSISDLDSIFGPVLSPKSVAVNTEETWVHFSDASPEHVTPELTPREKVVTPPAASDIPADSPTPGPPGPPGSAGPPGPPGPRNVPSPLNLEEVQKKVAEQTFIKDDYLETLSSPKECGLGQRETPPPPPPPTYRTVVSSPGPGSGSGTGTASGASSPARPATPLVPCSCSTPPPPPPRPPSRPKLPPGKPGVGDVSRPFSPPIHSSSPPPIAPL
